Assay results as given in the supplement of paper PMC12595434, “Development of retinoid nuclear receptor pathway antagonists through targeting aldehyde dehydrogenase 1A3” (iScience, 2025).
This is one part of the list. This is a noisy data set.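 Tm was set to 64 °C where no melting was found, and many curves are irregular.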

Amino acid sequences for entries named in this document (tags omitted). A change or cut given only in a name is not applied to a line headed by its entry.
UniProt O43390: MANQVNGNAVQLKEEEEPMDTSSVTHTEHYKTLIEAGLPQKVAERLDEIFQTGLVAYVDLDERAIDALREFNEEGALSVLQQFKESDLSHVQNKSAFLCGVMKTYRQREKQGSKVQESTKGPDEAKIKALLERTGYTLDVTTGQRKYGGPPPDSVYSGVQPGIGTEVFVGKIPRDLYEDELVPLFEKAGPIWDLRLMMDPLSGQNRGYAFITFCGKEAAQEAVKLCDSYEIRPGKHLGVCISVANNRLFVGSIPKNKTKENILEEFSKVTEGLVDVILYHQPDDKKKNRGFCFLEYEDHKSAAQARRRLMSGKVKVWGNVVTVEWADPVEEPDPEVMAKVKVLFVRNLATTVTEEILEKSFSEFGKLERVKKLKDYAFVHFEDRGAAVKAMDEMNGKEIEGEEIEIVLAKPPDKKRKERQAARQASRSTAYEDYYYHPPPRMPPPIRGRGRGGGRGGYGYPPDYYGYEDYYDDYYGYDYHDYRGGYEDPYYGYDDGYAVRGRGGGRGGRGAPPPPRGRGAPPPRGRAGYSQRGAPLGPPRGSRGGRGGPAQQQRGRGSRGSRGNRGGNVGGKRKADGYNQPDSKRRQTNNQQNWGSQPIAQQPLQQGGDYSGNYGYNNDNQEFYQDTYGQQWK
UniProt O75864: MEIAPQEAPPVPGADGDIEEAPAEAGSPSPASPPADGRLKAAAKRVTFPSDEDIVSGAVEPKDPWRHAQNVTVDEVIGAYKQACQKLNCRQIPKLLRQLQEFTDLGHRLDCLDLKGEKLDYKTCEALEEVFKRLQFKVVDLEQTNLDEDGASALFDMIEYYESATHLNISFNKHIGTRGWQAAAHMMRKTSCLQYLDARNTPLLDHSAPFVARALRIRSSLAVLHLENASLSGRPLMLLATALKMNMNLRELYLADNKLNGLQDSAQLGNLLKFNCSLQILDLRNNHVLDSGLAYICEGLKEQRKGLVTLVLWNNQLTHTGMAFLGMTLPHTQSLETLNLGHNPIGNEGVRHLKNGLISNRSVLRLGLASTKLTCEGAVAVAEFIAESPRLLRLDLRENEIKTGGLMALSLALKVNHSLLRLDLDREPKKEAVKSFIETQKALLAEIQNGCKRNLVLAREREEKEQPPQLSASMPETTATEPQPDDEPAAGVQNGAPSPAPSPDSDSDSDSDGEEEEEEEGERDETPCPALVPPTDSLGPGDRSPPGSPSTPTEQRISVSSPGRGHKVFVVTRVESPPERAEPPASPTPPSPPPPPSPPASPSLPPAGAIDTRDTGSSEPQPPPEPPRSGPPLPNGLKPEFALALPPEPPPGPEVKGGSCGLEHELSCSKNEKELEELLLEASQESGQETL
UniProt O75379: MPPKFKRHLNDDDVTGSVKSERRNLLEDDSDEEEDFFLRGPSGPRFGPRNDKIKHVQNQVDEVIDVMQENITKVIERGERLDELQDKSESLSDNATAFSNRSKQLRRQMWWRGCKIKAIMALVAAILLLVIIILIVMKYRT
UniProt O60493, whole entry: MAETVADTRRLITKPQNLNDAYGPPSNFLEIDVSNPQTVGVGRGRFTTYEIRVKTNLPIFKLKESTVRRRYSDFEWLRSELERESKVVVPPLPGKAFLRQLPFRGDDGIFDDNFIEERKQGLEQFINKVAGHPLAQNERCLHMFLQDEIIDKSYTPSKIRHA
UniProt O43681: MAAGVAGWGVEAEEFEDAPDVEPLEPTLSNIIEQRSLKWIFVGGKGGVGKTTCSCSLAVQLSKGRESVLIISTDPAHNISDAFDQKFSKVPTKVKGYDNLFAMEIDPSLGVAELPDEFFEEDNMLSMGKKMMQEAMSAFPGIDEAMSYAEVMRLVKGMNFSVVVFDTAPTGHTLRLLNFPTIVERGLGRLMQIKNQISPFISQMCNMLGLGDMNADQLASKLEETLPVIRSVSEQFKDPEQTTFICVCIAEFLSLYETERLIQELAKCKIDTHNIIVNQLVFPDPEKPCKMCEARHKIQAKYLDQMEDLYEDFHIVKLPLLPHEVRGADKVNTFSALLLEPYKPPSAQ
UniProt O60337: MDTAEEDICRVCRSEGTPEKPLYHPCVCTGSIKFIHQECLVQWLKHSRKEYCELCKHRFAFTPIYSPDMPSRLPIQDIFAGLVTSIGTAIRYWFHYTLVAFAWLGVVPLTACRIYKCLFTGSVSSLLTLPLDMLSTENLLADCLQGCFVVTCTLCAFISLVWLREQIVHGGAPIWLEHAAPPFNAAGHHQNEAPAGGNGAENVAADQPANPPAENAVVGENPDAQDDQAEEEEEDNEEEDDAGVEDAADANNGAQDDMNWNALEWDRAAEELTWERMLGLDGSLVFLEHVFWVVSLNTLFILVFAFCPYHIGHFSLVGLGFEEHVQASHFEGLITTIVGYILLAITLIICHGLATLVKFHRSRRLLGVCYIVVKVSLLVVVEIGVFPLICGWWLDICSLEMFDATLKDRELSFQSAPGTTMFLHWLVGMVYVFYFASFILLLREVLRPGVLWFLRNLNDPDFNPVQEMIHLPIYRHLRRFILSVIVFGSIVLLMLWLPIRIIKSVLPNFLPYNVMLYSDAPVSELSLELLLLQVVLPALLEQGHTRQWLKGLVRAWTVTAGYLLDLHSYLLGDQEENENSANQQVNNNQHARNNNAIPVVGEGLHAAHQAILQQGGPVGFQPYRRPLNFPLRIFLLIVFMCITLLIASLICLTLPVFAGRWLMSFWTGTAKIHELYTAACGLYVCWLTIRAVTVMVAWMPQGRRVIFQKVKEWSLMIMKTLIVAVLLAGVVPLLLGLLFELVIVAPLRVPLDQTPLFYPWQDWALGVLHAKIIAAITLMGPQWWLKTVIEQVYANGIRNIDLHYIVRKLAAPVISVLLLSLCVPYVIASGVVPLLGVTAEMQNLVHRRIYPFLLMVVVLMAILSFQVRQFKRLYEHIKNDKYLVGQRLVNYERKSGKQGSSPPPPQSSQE
UniProt O75808: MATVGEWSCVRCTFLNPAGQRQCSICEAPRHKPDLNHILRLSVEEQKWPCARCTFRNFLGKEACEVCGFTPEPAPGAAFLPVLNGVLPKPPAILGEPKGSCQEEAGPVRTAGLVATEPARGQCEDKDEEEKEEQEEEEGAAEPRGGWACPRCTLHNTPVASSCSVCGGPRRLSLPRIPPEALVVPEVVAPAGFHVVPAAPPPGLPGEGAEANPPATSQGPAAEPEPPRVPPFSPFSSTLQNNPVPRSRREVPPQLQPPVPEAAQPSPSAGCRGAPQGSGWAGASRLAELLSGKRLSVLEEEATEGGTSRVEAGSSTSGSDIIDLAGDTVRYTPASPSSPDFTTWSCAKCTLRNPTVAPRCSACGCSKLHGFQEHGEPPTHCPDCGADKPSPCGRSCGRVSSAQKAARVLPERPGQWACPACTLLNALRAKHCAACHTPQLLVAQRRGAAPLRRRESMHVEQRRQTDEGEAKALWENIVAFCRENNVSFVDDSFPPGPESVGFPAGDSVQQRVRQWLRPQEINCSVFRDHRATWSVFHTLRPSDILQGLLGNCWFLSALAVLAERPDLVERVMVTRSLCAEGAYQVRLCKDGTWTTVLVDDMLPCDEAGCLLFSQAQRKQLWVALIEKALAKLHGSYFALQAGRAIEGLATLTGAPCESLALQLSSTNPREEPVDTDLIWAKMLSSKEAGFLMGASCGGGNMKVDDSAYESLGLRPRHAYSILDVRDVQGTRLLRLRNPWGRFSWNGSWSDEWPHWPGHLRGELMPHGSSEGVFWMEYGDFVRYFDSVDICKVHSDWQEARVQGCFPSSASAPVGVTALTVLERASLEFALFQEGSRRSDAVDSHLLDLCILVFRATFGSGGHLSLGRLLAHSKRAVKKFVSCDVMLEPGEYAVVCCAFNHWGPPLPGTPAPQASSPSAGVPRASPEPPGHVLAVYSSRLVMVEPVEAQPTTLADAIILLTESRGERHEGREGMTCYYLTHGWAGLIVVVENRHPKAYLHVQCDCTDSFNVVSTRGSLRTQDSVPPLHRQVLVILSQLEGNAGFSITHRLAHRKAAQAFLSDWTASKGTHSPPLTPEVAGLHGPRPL
UniProt O75874, whole entry: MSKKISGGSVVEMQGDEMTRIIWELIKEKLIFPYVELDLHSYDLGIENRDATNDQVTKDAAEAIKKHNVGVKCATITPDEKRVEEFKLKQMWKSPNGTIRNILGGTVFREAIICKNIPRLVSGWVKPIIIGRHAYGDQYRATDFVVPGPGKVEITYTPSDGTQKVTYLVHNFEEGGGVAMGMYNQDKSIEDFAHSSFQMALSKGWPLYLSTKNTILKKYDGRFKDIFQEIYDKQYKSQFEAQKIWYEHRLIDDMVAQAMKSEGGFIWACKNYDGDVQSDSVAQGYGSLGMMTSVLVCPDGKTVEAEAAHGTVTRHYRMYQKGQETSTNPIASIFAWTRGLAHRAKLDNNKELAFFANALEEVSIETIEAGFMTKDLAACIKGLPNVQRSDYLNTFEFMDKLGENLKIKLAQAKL
UniProt O43663: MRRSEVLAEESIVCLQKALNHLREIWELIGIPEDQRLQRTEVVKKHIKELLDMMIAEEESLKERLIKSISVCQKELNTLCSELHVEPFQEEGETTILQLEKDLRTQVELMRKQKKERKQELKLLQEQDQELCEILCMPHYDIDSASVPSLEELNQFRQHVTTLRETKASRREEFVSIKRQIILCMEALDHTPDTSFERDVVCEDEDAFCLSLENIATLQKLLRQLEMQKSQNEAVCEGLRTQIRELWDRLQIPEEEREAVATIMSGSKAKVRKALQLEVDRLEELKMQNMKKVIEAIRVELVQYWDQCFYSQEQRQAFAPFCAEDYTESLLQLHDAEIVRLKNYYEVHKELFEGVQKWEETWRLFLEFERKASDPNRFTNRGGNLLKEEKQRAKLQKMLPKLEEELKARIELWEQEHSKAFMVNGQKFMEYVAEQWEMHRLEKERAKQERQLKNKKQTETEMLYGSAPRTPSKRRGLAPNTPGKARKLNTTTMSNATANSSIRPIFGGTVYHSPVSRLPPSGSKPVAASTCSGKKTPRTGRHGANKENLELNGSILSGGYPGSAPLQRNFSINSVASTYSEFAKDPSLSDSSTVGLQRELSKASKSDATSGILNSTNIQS
UniProt O60506: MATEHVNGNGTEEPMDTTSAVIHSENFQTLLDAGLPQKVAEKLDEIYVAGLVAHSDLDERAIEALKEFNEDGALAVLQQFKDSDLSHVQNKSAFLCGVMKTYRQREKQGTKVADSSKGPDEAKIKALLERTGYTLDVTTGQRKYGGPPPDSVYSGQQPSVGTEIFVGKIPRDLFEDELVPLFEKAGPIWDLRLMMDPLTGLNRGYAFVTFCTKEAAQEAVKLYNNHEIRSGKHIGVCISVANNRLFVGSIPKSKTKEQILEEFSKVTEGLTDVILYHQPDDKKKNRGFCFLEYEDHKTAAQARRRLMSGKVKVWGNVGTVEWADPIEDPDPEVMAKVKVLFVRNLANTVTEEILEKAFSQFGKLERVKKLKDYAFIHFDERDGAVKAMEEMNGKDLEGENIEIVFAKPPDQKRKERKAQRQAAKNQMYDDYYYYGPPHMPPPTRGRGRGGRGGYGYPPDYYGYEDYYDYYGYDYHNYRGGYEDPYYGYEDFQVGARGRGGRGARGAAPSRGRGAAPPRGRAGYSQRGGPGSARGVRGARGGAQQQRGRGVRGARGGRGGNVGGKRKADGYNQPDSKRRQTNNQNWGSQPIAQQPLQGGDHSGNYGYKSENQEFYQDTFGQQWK
UniProt O60870: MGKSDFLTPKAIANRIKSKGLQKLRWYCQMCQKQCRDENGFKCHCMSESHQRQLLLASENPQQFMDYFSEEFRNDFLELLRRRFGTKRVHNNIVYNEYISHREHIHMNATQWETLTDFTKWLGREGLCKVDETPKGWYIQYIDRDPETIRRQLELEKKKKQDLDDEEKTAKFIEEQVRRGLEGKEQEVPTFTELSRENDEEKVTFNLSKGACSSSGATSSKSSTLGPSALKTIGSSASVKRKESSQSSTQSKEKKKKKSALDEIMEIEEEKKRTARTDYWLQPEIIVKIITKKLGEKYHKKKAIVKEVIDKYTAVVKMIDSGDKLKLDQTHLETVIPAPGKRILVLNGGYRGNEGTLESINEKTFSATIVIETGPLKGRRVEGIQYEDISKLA
UniProt O75340: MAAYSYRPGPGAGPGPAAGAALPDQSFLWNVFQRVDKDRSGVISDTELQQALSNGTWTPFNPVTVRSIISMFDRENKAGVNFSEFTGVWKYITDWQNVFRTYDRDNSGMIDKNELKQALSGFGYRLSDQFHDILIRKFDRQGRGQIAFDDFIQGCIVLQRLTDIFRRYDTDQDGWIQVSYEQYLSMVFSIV

Compound: CCc1cnccc1C(=O)Nc1cc2c(cc1F)NC(=O)CC2
Test: melting temperature shift (DMSO Tm minus MBE1-treated Tm) in cellular thermal proteome profiling; higher = less thermal stabilization by MBE1 (negative = stabilized by MBE1)
Details: A375

FIBP (UniProt O43427)
melting temperature shift (MBE1 concentration: 100 nM): -2.23 °C
melting temperature shift (MBE1 concentration: 1 uM): 1.07 °C

NDUFA2 (UniProt O43678)
melting temperature shift (MBE1 concentration: 100 nM): -2.5 °C
melting temperature shift (MBE1 concentration: 1 uM): 0.862 °C

UGDH (UniProt O60701)
melting temperature shift (MBE1 concentration: 100 nM): -0.59 °C
melting temperature shift (MBE1 concentration: 1 uM): 0.335 °C

HNRNPR (UniProt O43390)
melting temperature shift (MBE1 concentration: 100 nM): -0.183 °C
melting temperature shift (MBE1 concentration: 1 uM): -0.353 °C

UniProt O60292
melting temperature shift (MBE1 concentration: 100 nM): -0.96 °C
melting temperature shift (MBE1 concentration: 1 uM): -0.235 °C

SORBS3 (UniProt O60504)
melting temperature shift (MBE1 concentration: 100 nM): 0.714 °C
melting temperature shift (MBE1 concentration: 1 uM): 0.605 °C

PPP1R37 (UniProt O75864)
melting temperature shift (MBE1 concentration: 100 nM): -0.579 °C
melting temperature shift (MBE1 concentration: 1 uM): 0.73 °C

AQR (UniProt O60306)
melting temperature shift (MBE1 concentration: 100 nM): 0.357 °C
melting temperature shift (MBE1 concentration: 1 uM): 1.27 °C

BUB1 (UniProt O43683)
melting temperature shift (MBE1 concentration: 100 nM): -1.52 °C
melting temperature shift (MBE1 concentration: 1 uM): -0.98 °C

VAMP4 (UniProt O75379)
melting temperature shift (MBE1 concentration: 100 nM): -3.91 °C
melting temperature shift (MBE1 concentration: 1 uM): 2.45 °C

SNX3 (UniProt O60493)
melting temperature shift (MBE1 concentration: 100 nM): -0.273 °C
melting temperature shift (MBE1 concentration: 1 uM): -0.447 °C

STRN (UniProt O43815)
melting temperature shift (MBE1 concentration: 100 nM): -0.463 °C
melting temperature shift (MBE1 concentration: 1 uM): 0.44 °C

MED14 (UniProt O60244)
melting temperature shift (MBE1 concentration: 100 nM): 0.69 °C
melting temperature shift (MBE1 concentration: 1 uM): 0.476 °C

PDE8A (UniProt O60658)
melting temperature shift (MBE1 concentration: 100 nM): -0.55 °C
melting temperature shift (MBE1 concentration: 1 uM): 0.666 °C

NME6 (UniProt O75414)
melting temperature shift (MBE1 concentration: 100 nM): -1.7 °C
melting temperature shift (MBE1 concentration: 1 uM): -1.29 °C

EIF4G3 (UniProt O43432)
melting temperature shift (MBE1 concentration: 100 nM): -0.671 °C
melting temperature shift (MBE1 concentration: 1 uM): -0.263 °C

AKR7A2 (UniProt O43488)
melting temperature shift (MBE1 concentration: 100 nM): -0.0537 °C
melting temperature shift (MBE1 concentration: 1 uM): 0.0604 °C

ASNA1 (UniProt O43681)
melting temperature shift (MBE1 concentration: 100 nM): -0.751 °C
melting temperature shift (MBE1 concentration: 1 uM): 1.05 °C

CSDE1 (UniProt O75534)
melting temperature shift (MBE1 concentration: 100 nM): -0.585 °C
melting temperature shift (MBE1 concentration: 1 uM): -0.346 °C

MARCH6 (UniProt O60337)
melting temperature shift (MBE1 concentration: 100 nM): -0.443 °C
melting temperature shift (MBE1 concentration: 1 uM): -0.0872 °C

UniProt O43422
melting temperature shift (MBE1 concentration: 100 nM): 0.198 °C
melting temperature shift (MBE1 concentration: 1 uM): -0.442 °C

CAPN15 (UniProt O75808)
melting temperature shift (MBE1 concentration: 100 nM): 2.69 °C
melting temperature shift (MBE1 concentration: 1 uM): -0.127 °C

IDH1 (UniProt O75874)
melting temperature shift (MBE1 concentration: 100 nM): -0.397 °C
melting temperature shift (MBE1 concentration: 1 uM): 0.507 °C

UniProt O60613
melting temperature shift (MBE1 concentration: 100 nM): -1.43 °C
melting temperature shift (MBE1 concentration: 1 uM): 0.47 °C

OBSL1 (UniProt O75147)
melting temperature shift (MBE1 concentration: 100 nM): -0.794 °C
melting temperature shift (MBE1 concentration: 1 uM): -0.442 °C

DENND4B (UniProt O75064)
melting temperature shift (MBE1 concentration: 100 nM): -0.0916 °C
melting temperature shift (MBE1 concentration: 1 uM): 0.427 °C

UniProt O75317
melting temperature shift (MBE1 concentration: 100 nM): -0.892 °C
melting temperature shift (MBE1 concentration: 1 uM): -1.9 °C

NDUFS6 (UniProt O75380)
melting temperature shift (MBE1 concentration: 100 nM): -11 °C
melting temperature shift (MBE1 concentration: 1 uM): -5.62 °C

CRTAP (UniProt O75718)
melting temperature shift (MBE1 concentration: 100 nM): 0.711 °C
melting temperature shift (MBE1 concentration: 1 uM): 0.0268 °C

TRMU (UniProt O75648)
melting temperature shift (MBE1 concentration: 100 nM): 1.15 °C
melting temperature shift (MBE1 concentration: 1 uM): 0.403 °C

PRC1 (UniProt O43663)
melting temperature shift (MBE1 concentration: 100 nM): -0.314 °C
melting temperature shift (MBE1 concentration: 1 uM): -0.743 °C

LIAS (UniProt O43766)
melting temperature shift (MBE1 concentration: 100 nM): -1.47 °C
melting temperature shift (MBE1 concentration: 1 uM): -2.66 °C

TXNL1 (UniProt O43396)
melting temperature shift (MBE1 concentration: 100 nM): 0.904 °C
melting temperature shift (MBE1 concentration: 1 uM): 0.293 °C

RNF40 (UniProt O75150)
melting temperature shift (MBE1 concentration: 100 nM): -0.186 °C
melting temperature shift (MBE1 concentration: 1 uM): -0.218 °C

SYNCRIP (UniProt O60506)
melting temperature shift (MBE1 concentration: 100 nM): 0.104 °C
melting temperature shift (MBE1 concentration: 1 uM): 0.293 °C

PRPF3 (UniProt O43395)
melting temperature shift (MBE1 concentration: 100 nM): -0.339 °C
melting temperature shift (MBE1 concentration: 1 uM): -0.616 °C

SPAG7 (UniProt O75391)
melting temperature shift (MBE1 concentration: 100 nM): -2.85 °C
melting temperature shift (MBE1 concentration: 1 uM): -0.806 °C

KIN (UniProt O60870)
melting temperature shift (MBE1 concentration: 100 nM): -0.0705 °C
melting temperature shift (MBE1 concentration: 1 uM): 0.0641 °C

VPS26A (UniProt O75436)
melting temperature shift (MBE1 concentration: 100 nM): -0.798 °C
melting temperature shift (MBE1 concentration: 1 uM): -0.516 °C

UniProt O75356
melting temperature shift (MBE1 concentration: 100 nM): -0.651 °C
melting temperature shift (MBE1 concentration: 1 uM): 0.219 °C

CS (UniProt O75390)
melting temperature shift (MBE1 concentration: 100 nM): -0.423 °C
melting temperature shift (MBE1 concentration: 1 uM): 0.181 °C

PEX1 (UniProt O43933)
melting temperature shift (MBE1 concentration: 100 nM): 0.415 °C
melting temperature shift (MBE1 concentration: 1 uM): 0.183 °C

PDCD6 (UniProt O75340)
melting temperature shift (MBE1 concentration: 100 nM): -1.16 °C
melting temperature shift (MBE1 concentration: 1 uM): -0.751 °C

MYO1B (UniProt O43795)
melting temperature shift (MBE1 concentration: 100 nM): 0.208 °C
melting temperature shift (MBE1 concentration: 1 uM): 0.0427 °C

DIAPH1 (UniProt O60610)
melting temperature shift (MBE1 concentration: 100 nM): -0.386 °C
melting temperature shift (MBE1 concentration: 1 uM): -0.263 °C

CCNT1 (UniProt O60563)
melting temperature shift (MBE1 concentration: 100 nM): -0.177 °C
melting temperature shift (MBE1 concentration: 1 uM): 0.806 °C

UniProt O60279
melting temperature shift (MBE1 concentration: 100 nM): -4.73 °C
melting temperature shift (MBE1 concentration: 1 uM): -3.83 °C

SH3BP5 (UniProt O60239)
melting temperature shift (MBE1 concentration: 100 nM): 1.07 °C
melting temperature shift (MBE1 concentration: 1 uM): 0.14 °C

TADA3 (UniProt O75528)
melting temperature shift (MBE1 concentration: 100 nM): -3.43 °C
melting temperature shift (MBE1 concentration: 1 uM): -4.96 °C

PPP1R11 (UniProt O60927)
melting temperature shift (MBE1 concentration: 100 nM): 0 °C
melting temperature shift (MBE1 concentration: 1 uM): -2.65 °C

EPB41L2 (UniProt O43491)
melting temperature shift (MBE1 concentration: 100 nM): -0.747 °C
melting temperature shift (MBE1 concentration: 1 uM): 0.165 °C
